# The supplement of paper PMC7125110
# ± gives the standard error. Many entries were measured with a wide error.
# B1: glmS ribozyme (parent)
# chain: AUAAAAGCGCCAGAACUACAGAAAUGUAGUUGACGAGGAGGAGGUUUAUCGAAUUUUCGGCGGAUGCCUCCAAA
# Variants of: B1
# Assay: KM; higher = weaker cofactor use; RNA array
# Conditions: with glucosamine-6-phosphate
# How it was run: (§1)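 In situ transcription by E. coli RNA polymerase produced barcoded ribozyme variants on sequenced MiSeq chips, and a hybridised Cy3 probe tracked them at 37 °C. Glucosamine-6-phosphate was flowed in at 40 μM to 10 mM in HEPES/KCl/Mg(OAc)2 buffer. kcat and KM were taken from weighted Michaelis–Menten fits of kobs values from exponential decay fits.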
row,Variant,KM
1,A6G U30G,5370 ± 1400 µM
2,A6G U30A,1920 ± 1200 µM
3,G44A C67U,548 ± 430 µM
4,G44C C67A,2470 ± 1500 µM
5,U65G C68U,2180 ± 1200 µM
6,C11U A12U G32A,2370 ± 1900 µM
7,U46A U65G,3090 ± 2900 µM
8,A6U A23C U30G,2780 ± 300 µM
9,G37A G43U,620 ± 300 µM
10,C11G U30A,14800 ± 1200 µM
11,A33U A52G,8900 ± 6300 µM
12,C71U,1730 ± 1400 µM
13,G7A A53U,8600 ± 6700 µM
14,U45A U57C,7520 ± 6000 µM
15,G32C G59A,1370 ± 690 µM
16,G37A G41U,749 ± 510 µM
17,C10G C11A,1950 ± 1900 µM
18,A15U C71G,1610 ± 810 µM
19,C11U U45G U54A,2720 ± 1800 µM
20,U31C A64G,3920 ± 2100 µM
21,C11A U56G,1410 ± 990 µM
22,G32A A52C,128 ± 28 µM
23,C16A G66A,4130 ± 370 µM
24,A15G C67A C71U,421 ± 260 µM

row,Variant,KM
1,U31A C50A,605 ± 190 µM
2,G37A A42U,2220 ± 480 µM
3,C16G A53U,1910 ± 380 µM
4,A12U U69A,53.4 ± 34 µM
5,U31A C70U,2180 ± 1300 µM
6,A12C A48G,1260 ± 810 µM
7,A14G U49G,1530 ± 910 µM
8,A33C G37A,3920 ± 2800 µM
9,A14C A15U U56G,583 ± 440 µM
10,A15U U65C,143 ± 97 µM
11,A15U U65G,3770 ± 2000 µM
12,G29A U56A,4500 ± 2400 µM
13,U31G A42U,2480 ± 1800 µM
14,A14U A33U,13900 ± 3300 µM
15,A53U C71A,3120 ± 2900 µM
16,A33U C67U,1110 ± 1100 µM
17,G13A G32C,6080 ± 3300 µM
18,A14U U31G A64G,3010 ± 1600 µM
19,C34A U45A G51U,1500 ± 830 µM
20,C10A A12U C71U,21.5 ± 9.2 µM
21,A36U G37U,21.7 ± 19 µM
22,G32A A33C C70G,52.7 ± 51 µM
23,A33U C61U,49 ± 39 µM
24,C11A U30G G60A,18.4 ± 16 µM

row,Variant,KM
1,A12U U31G,1530 ± 910 µM
2,G29A C67A,1930 ± 1200 µM
3,A15U,1950 ± 440 µM
4,U46G A53G,1310 ± 890 µM
5,C8A G37U C70A,43.9 ± 40 µM
6,A36U G66A,55.3 ± 40 µM
7,G32U A64G,3130 ± 1100 µM
8,G13U G41C,101000 ± 12000 µM
9,U30G G40U,1610 ± 350 µM
10,C11U U31C,1620 ± 460 µM
11,U31G U46A,991 ± 620 µM
12,A33U U47G,682 ± 350 µM
13,U30A A33U,4010 ± 660 µM
14,C16G U49G,1510 ± 910 µM
15,C10U A53G,6420 ± 600 µM
16,A15U G40U,1170 ± 710 µM
17,A53U C67G,9980 ± 9400 µM
18,G32C A53U,7510 ± 930 µM
19,C16G U45A,2340 ± 1100 µM
20,U57G G66U,12100 ± 11000 µM
21,G13C G29U,3700 ± 710 µM
22,A12C C58A,15200 ± 580 µM

# Looked up above.
# In KM, G13C G29U is entered as 3700 ± 710 µM
# In KM, A15U is entered as 1950 ± 440 µM

# Variants of: B1
# Assay: kcat; higher = faster cleavage; RNA array
# Conditions: with glucosamine-6-phosphate
# How it was run: as §1
row,Variant,kcat
1,G44A C67U,0.0102 ± 0.0063 s⁻¹
2,G44C C67A,0.00866 ± 0.0045 s⁻¹
3,U65G C68U,0.00167 ± 0.00057 s⁻¹
4,U46A U65G,0.00335 ± 0.0021 s⁻¹
5,C71U,0.0412 ± 0.026 s⁻¹
6,U45A U57C,0.000656 ± 0.00035 s⁻¹
7,G41A U49G,3.79e-05 ± 6.4e-06 s⁻¹
8,U49A A53U,1.3e-05 ± 8.1e-06 s⁻¹
9,C50A C61G C68U,4.44e-05 ± 2.8e-05 s⁻¹
10,C50U C58A C68U,4.7e-05 ± 2.4e-05 s⁻¹
11,A53U C71A,0.00637 ± 0.0044 s⁻¹
12,U46G A53G,0.00499 ± 0.0025 s⁻¹
13,U47C C61G,< 1e-05 s⁻¹
14,A53U C67G,0.00417 ± 0.0027 s⁻¹
15,U57G G66U,1.52e-05 ± 8.3e-06 s⁻¹

# In a second layout: results already given
row	Variant	kcat
4	U46A U65G	0.00335 ± 0.0021 s⁻¹
5	C71U	0.0412 ± 0.026 s⁻¹
6	U45A U57C	0.000656 ± 0.00035 s⁻¹
8	U49A A53U	1.3e-05 ± 8.1e-06 s⁻¹
11	A53U C71A	0.00637 ± 0.0044 s⁻¹
14	A53U C67G	0.00417 ± 0.0027 s⁻¹

# Variants of: B1
# Assay: self-cleavage kobs at 640 uM GlcN6P; higher = faster cleavage; RNA array
# Conditions: with glucosamine-6-phosphate
# How it was run: as §1
row,Variant,self-cleavage kobs at 640 uM GlcN6P
1,C11U A12U G32A,2.16e-05 ± 2e-05 s⁻¹
2,G37A G43U,2.13e-05 ± 1.3e-05 s⁻¹
3,U31G A42U,2.26e-05 ± 1.8e-05 s⁻¹
4,A33U U47G,1.56e-05 ± 1.2e-05 s⁻¹
5,A12C C58A,3e-05 ± 2.2e-05 s⁻¹

# Variants of: B1
# Assay: self-cleavage kobs at 40 uM GlcN6P; higher = faster cleavage; RNA array
# Conditions: with glucosamine-6-phosphate
# How it was run: as §1
row,Variant,self-cleavage kobs at 40 uM GlcN6P
1,U46A U65G,2.08e-05 ± 1.1e-05 s⁻¹
2,A15U C71G,1.97e-05 ± 1e-05 s⁻¹
3,G32U A64G,2.04e-05 ± 1.8e-05 s⁻¹

# Variants of: B1
# Assay: self-cleavage kobs at 2500 uM GlcN6P; higher = faster cleavage; RNA array
# Conditions: with glucosamine-6-phosphate
# How it was run: as §1
row,Variant,self-cleavage kobs at 2500 uM GlcN6P
1,A6U A23C U30G,2.59e-05 ± 1.6e-05 s⁻¹
2,C50A C61G C68U,4.63e-05 ± 3.1e-05 s⁻¹
3,C50U C58A C68U,3.11e-05 ± 2.2e-05 s⁻¹
4,A53U C71A,0.00903 ± 0.0054 s⁻¹
5,U30A A33U,2.21e-05 ± 1.3e-05 s⁻¹

# Variants of: B1
# Assay: self-cleavage kobs at 160 uM GlcN6P; higher = faster cleavage; RNA array
# Conditions: with glucosamine-6-phosphate
# How it was run: as §1
row,Variant,self-cleavage kobs at 160 uM GlcN6P
1,C34A U45A G51U,2.71e-05 ± 2.3e-05 s⁻¹
